Where a chain is given by its changes, count along the chain named. Numbers in names are those of the source. These are yes or no findings as the source states them, for the method shown. In cells and extracts the contact can be indirect. Some binding calls cover weakened binding; strength is not graded here. For some of these results: Where a sequence is shown, tags or fusion partners need not be part of it.
How the values were obtained:
Experiment in all cases: cross-linking
[1] = target: T1, Smc3(R1222C)-HaloTag (S. cerevisiae) (UniProt P47037)
T1 sequence: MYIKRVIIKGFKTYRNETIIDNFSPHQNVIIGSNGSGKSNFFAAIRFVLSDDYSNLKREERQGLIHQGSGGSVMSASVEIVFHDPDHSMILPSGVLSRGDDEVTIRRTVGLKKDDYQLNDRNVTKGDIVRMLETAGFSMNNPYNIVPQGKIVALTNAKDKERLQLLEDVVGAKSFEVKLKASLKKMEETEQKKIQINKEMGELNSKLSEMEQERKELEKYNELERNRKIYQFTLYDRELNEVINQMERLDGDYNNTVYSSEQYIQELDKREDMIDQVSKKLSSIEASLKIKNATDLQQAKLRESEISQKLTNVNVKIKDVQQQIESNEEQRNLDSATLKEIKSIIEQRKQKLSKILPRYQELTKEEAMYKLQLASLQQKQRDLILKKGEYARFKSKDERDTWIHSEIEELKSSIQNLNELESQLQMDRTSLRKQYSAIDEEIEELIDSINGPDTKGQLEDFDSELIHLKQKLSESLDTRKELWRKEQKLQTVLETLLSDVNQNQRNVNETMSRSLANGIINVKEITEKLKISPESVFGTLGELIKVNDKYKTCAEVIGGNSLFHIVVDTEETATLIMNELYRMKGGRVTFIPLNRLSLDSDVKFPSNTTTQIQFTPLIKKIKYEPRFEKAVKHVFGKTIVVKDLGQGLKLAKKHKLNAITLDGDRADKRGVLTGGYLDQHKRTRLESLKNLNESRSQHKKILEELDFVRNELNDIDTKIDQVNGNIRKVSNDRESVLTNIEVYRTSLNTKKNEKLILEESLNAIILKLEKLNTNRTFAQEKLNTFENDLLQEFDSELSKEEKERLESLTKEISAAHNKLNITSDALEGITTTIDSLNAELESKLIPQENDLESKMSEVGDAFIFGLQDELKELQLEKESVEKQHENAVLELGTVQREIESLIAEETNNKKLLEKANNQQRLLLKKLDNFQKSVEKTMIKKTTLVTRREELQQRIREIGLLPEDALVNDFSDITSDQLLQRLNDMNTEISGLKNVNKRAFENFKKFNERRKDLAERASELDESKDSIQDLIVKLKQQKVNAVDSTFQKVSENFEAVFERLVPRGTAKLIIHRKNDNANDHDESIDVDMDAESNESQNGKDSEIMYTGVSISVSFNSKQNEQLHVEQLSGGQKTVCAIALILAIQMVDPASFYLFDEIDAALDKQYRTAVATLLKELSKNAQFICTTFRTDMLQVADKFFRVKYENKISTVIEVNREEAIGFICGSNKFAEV

[2] = target: T2, Smc3(E1155Q, R1222C)-HaloTag (S. cerevisiae) (UniProt P47037)
T2 sequence: T1 sequence with E1155Q

[3] = target: T3, Smc3(K160C)-PK6 (S. cerevisiae) (UniProt P47037)
T3 sequence: T1 sequence with K160C, C1222R

[4] = target: T4, Smc3(K160C) (S. cerevisiae) (UniProt P47037)
T4 sequence: T1 sequence with K160C, C1222R

B1: Smc1(N1192C) (protein, UniProt P32908 1-1225)
chain: MGRLVGLELSNFKSYRGVTKVGFGESNFTSIIGPNGSGKSNMMDAISFVLGVRSNHLRSNILKDLIYRGVLNDENSDDYDNEGAASSNPQSAYVKAFYQKGNKLVELMRIISRNGDTSYKIDGKTVSYKDYSIFLENENILIKAKNFLVFQGDVEQIAAQSPVELSRMFEEVSGSIQYKKEYEELKEKIEKLSKSATESIKNRRRIHGELKTYKEGINKNEEYRKQLDKKNELQKFQALWQLYHLEQQKEELTDKLSALNSEISSLKGKINNEMKSLQRSKSSFVKESAVISKQKSKLDYIFKDKEKLVSDLRLIKVPQQAAGKRISHIEKRIESLQKDLQRQKTYVERFETQLKVVTRSKEAFEEEIKQSARNYDKFKLNENDLKTYNCLHEKYLTEGGSILEEKIAVLNNDKREIQEELERFNKRADISKRRITEELSITGEKLDTQLNDLRVSLNEKNALHTERLHELKKLQSDIESANNQEYDLNFKLRETLVKIDDLSANQRETMKERKLRENIAMLKRFFPGVKGLVHDLCHPKKEKYGLAVSTILGKNFDSVIVENLTVAQECIAFLKKQRAGTASFIPLDTIETELPTLSLPDSQDYILSINAIDYEPEYEKAMQYVCGDSIICNTLNIAKDLKWKKGIRGKLVTIEGALIHKAGLMTGGISGDANNRWDKEEYQSLMSLKDKLLIQIDELSNGQRSNSIRAREVENSVSLLNSDIANLRTQVTQQKRSLDENRLEIKYHNDLIEKEIQPKITELKKKLDDLENTKDNLVKEKEALQNNIFKEFTSKIGFTIKEYENHSGELMRQQSKELQQLQKQILTVENKLQFETDRLSTTQRRYEKAQKDLENAQVEMKSLEEQEYAIEMKIGSIESKLEEHKNHLDELQKKFVTKQSELNSSEDILEDMNSNLQVLKRERDGIKEDIEKFDLERVTALKNCKISNINIPISSETTIDDLPISSTDNEAITISNSIDINYKGLPKKYKENNTDSARKELEQKIHEVEEILNELQPNARALERYDEAEGRFEVINNETEQLKAEEKKILNQFLKIKKKRKELFEKTFDYVSDHLDAIYRELTKNPNSNVELAGGNASLTIEDEDEPFNAGIKYHATPPLKRFKDMEYLSGGEKTVAALALLFAINSYQPSPFFVLDEVDAALDITNVQRIAAYIRRHRNPDLQFIVISLKCTMFEKSDALVGVYRQQQENSSKIITLDLSNYAE
- binding [1]: binds
- binding [2]: binds

B2: Smc1(S161C)-HA6 (natural protein, S. cerevisiae, UniProt P32908 1-1225, looked up)
chain: B1 chain with S161C, C1192N
- binding [3]: binds
- binding [4]: binds
